Measurements reported in article PMC4658004.
No constants are given. Whether binding was seen depends on the method and setting. Binding seen in cells or lysates may run through a third protein. Some entries that bind do so weakly or less than the wild type. Tags and fused reporters may be left off the sequences shown.

The chains behind the UniProt entries cited, without tags or fusion partners.
UniProt P62835: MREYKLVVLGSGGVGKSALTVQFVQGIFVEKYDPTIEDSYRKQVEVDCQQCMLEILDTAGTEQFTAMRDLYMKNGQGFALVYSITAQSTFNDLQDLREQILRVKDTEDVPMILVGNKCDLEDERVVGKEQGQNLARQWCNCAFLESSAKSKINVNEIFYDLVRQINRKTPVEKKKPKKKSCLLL

Biological target: T1, GST-tagged fusion protein corresponding to residues 788-884 of human Ral GDS-Rap binding domain (human) (UniProt Q12967)
T1 sequence: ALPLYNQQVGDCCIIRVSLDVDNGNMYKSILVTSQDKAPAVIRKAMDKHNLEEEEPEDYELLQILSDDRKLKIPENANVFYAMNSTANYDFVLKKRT
Test: pull-down; GST-RalGDS-RBD immobilized on glutathione-agarose, incubated with cell lysates (50 mM Tris-HCl pH 7.4, 0.5 M NaCl, 1% NP40, 2.5 mM MgCl2, 10% glycerol) at 4°C for 45 minutes; captured Rap1A detected by anti-Rap1A Western blot; C2C12 and MC3T3-E1 cells treated with osteogenic inducers (AA/β-GP) for the indicated times; only the target purified

binding: binds
Substance: Rap1A (active GTP-bound form) (from UniProt P62835 1-184)
